In paper PMC5719394:
No constants are given. Whether binding was seen depends on the method and setting. In cells and extracts the contact can be indirect. Some binding calls cover weakened binding; strength is not graded here. Tags and fused reporters may be left off the sequences shown.

Molecular target: T1, Flag-tagged NLRP11 (FL) (human) (UniProt P59045)
T1 sequence: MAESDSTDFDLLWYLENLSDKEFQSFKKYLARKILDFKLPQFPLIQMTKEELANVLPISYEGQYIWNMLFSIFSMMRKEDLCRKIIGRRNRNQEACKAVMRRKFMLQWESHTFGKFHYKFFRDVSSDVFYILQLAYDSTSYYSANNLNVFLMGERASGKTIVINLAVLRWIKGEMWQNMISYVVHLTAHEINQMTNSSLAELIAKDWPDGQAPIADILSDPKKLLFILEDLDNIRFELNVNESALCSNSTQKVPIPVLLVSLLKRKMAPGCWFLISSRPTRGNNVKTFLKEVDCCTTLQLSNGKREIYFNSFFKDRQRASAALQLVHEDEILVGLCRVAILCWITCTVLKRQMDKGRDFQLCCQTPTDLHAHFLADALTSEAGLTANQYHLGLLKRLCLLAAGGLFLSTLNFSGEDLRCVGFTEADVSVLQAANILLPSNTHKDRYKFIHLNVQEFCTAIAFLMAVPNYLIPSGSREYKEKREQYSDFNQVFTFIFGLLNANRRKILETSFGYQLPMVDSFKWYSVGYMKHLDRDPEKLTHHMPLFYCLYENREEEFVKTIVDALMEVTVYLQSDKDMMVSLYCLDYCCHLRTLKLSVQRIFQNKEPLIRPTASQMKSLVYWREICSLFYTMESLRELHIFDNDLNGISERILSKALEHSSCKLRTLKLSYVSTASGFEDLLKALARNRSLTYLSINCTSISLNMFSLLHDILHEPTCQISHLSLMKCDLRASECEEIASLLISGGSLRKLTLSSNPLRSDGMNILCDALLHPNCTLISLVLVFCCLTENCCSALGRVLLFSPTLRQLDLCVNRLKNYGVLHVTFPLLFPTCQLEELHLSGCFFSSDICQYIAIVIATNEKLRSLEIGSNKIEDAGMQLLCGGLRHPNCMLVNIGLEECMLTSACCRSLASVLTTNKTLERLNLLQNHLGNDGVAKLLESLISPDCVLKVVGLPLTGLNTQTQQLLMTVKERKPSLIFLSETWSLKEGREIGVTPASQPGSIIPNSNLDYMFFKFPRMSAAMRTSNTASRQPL
Assay: co-IP; 293T cells co-transfected with tagged proteins; lysates in low-salt buffer; anti-Flag or anti-HA beads, 4 °C overnight, five washes; immunoblot

B1: GFP-RNF19A (enzyme, UniProt Q9NV58 1-838)
chain: MQEQEIGFISKYNEGLCVNTDPVSILTSILDMSLHRQMGSDRDLQSSASSVSLPSVKKAPKKRRISIGSLFRRKKDNKRKSRELNGGVDGIASIESIHSEMCTDKNSIFSTNTSSDNGLTSISKQIGDFIECPLCLLRHSKDRFPDIMTCHHRSCVDCLRQYLRIEISESRVNISCPECTERFNPHDIRLILSDDVLMEKYEEFMLRRWLVADPDCRWCPAPDCGYAVIAFGCASCPKLTCGREGCGTEFCYHCKQIWHPNQTCDAARQERAQSLRLRTIRSSSISYSQESGAAADDIKPCPRCAAYIIKMNDGSCNHMTCAVCGCEFCWLCMKEISDLHYLSPSGCTFWGKKPWSRKKKILWQLGTLVGAPVGIALIAGIAIPAMIIGIPVYVGRKIHNRYEGKDVSKHKRNLAIAGGVTLSVIVSPVVAAVTVGIGVPIMLAYVYGVVPISLCRSGGCGVSAGNGKGVRIEFDDENDINVGGTNTAVDTTSVAEARHNPSIGEGSVGGLTGSLSASGSHMDRIGAIRDNLSETASTMALAGASITGSLSGSAMVNCFNRLEVQADVQKERYSLSGESGTVSLGTVSDNASTKAMAGSILNSYIPLDKEGNSMEVQVDIESKPSKFRHNSGSSSVDDGSATRSHAGGSSSGLPEGKSSATKWSKEATAGKKSKSGKLRKKGNMKINETREDMDAQLLEQQSTNSSEFEAPSLSDSMPSVADSHSSHFSEFSCSDLESMKTSCSHGSSDYHTRFATVNILPEVENDRLENSPHQCSISVVTQTASCSEVSQLNHIAEEHGNNGIKPNVDLYFGDALKETNNNHSHQTMELKVAIQTEI
binding: binds
